Our source for the binding values is paper PMC10481574.

No constants are given. Whether binding was seen depends on the method and setting. In cells and extracts the contact can be indirect. A result given as binding can be weak or reduced; the word gives no strength.

The assay addresses TNFR2-ICD (intracellular domain of TNFR2) (human). The experiment in a line: co-IP; HEK293T cells harvested ~24 h after transfection, lysed in cell lysis buffer for Western and IP (Beyotime P0013); lysates precleared with protein A/G-PLUS agarose beads; IP with anti-HA tag or anti-FLAG tag antibody, immunoblot. A general note: In western blotting, separated proteins are transferred to a membrane and probed.

B1: RGS5 aa 109-181 (C-RGS5) (domain or fragment, UniProt O15539 109-181)
chain: MAEKAKQIYEEFIQTEAPKEVNIDHFTKDITMKNLVEPSLSSFDMAQKRIHALMEKDSLPRFVRSEFYQELIK
For the molecule B1, the binding result is reported as “no binding”.

B2: RGS5 aa 1-108 (N-RGS5) (domain or fragment, UniProt O15539 1-108)
chain: MCKGLAALPHSCLERAKEIKIKLGILLQKPDSVGDLVIPYNEKPEKPAKTQKTSLDEALQWRDSLDKLLQNNYGLASFKSFLKSEFSEENLEFWIACEDYKKIKSPAK
Regarding B2, the binding entry was “binds”.
